Reference: PubChem BioAssay AID1455 (National Center for Advancing Translational Sciences (NCATS), 2008)
The inconclusive results got no clear call from the source; some entries with a clear call stand among them for comparison. Potencies of inconclusive entries are doubtful fits and often do not repeat. The source made the active and inactive calls. Calls follow the shape of the dose curve; as a rule, active = well fitted inhibition curve with a large enough effect; inconclusive = small, poorly fitted or top-dose-only effect; inactive = no such curve, though single readings can be large or run the other way.

Protein sequences, listed by entry. Tags and fused reporters are not part of them. Lines headed by an entry give the natural chain unless they say otherwise; changes in a name come on top.
UniProt O75604: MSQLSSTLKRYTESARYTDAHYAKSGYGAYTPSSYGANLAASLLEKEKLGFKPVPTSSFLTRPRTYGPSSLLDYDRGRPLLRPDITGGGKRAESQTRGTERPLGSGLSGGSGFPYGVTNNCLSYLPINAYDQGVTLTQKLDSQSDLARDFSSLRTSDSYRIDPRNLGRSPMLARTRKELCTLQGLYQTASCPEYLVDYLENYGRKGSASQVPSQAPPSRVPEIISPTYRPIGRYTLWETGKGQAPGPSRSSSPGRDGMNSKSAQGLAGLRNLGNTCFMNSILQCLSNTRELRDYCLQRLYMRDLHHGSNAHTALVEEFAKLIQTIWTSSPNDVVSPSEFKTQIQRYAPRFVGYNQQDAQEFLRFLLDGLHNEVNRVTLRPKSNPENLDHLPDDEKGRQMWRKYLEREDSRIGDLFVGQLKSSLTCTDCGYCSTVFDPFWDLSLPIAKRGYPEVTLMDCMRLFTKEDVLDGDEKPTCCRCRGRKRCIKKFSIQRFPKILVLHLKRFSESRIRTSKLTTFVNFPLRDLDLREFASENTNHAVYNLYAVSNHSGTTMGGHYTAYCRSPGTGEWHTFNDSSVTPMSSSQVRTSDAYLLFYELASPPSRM

molecular target: Ubiquitin carboxyl-terminal hydrolase 2 (Homo sapiens) (UniProt O75604); assay: Confirmation Concentration-response Assay for Inhibitors of Ubiquitin-specific Protease USP2a; conditions: USP2 core, Ub-PLA2 coupled fluorescence, NBD C6-HPC; series mostly up to 38.3 µM; activity, negative = inhibition: at the top concentration
Description: NIH Molecular Libraries Screening Centers Network [MLSCN] NIH Chemical Genomics Center [NCGC] MLSCN Grant: XO1-MH079852-01 PI Name: Nicholson, Ben. Progenra Inc, Malvern, PA NCGC Assay Overview: Homeostasis of cellular proteins is maintained through a combination of synthesis and degradation. The pathway that accounts for the majority of protein degradation is the ubiquitin-proteasomal pathway. Ubiquitin (Ub) is highly conserved in all cells and the generation of a multi-Ub chain typically targets proteins for degradation by the proteasome. However, ubiquitination is highly reversible and dynamic. Deubiquitination, the reverse process, is catalyzed through the action of enzymes referred to as isopeptidases or deubiquitinating enzymes (DUBs). This group of enzymes is collectively responsible for maintaining adequate pools of free ubiquitin and regulating the ubiquitination status of cellular proteins. The class of DUBs referred to as the ubiquitin-specific proteases (USP) family functions endoproteolytically to cleave Ub chains from a wide range of protein substrates. USP2a deubiquitinates fatty acid synthase (FASN) which has recently been identified as an emerging oncology target. To identify inhibitors of USP2a a cell-free assay was employed. […] The reporter enzyme chosen is phospholipase A2 (PLA2), which has an absolute requirement for a free amino terminus. Thus, fusion of a UBL to the N-terminus of PLA2 inactivates PLA2. When the UBL-PLA2 reporter enzyme is cleaved by USP2, the activated reporter can subsequently act on its substrate, which is the commercially available NBD C6-HPC (Invitrogen). Thus, this coupled assay gives a fluorescent read-out, which is generated through the cleavage of the PLA2 reporter enzyme. The assay, developed by Progenra, Inc. uses Ub-PLA2 and USP2a at near equal and low (nM) amounts and has been licensed for sale by LifeSensors, Inc. as the Ub-IsoPro1 kit.
NCGC Assay Protocol Summary: The assay buffer, prepared fresh at the day of the assay, contains 20mM Tris-HCl pH 8.0, 2mM CaCl2, 2mM beta-Mercaptoethanol, 0.1% DMSO. 3ul of 40nM (20nM final) USP2 core, which is stored on ice, is dispensed into a medium-binding black solid Kalypsys 1,536 well plate using the Kalypsys dispenser. The assay plate is then pinned with 23nL compound with the Kalypsys pintool in columns 5-48. The controls are pinned as follows: column 1&2 two-fold dilutions of 2M NEM in duplicate; column 3 DMSO; column 4 2M NEM (final concentration […]). The assay plate is incubated at RT for 30min. Subsequently, 3uL of 40nM (20nM final) Ub-PLA2 and 40uM (20uM final) NBD C6-HPC (stored on ice and protected from light) were dispensed into the plate using the Kalypsys dispenser. Plates were read immediately (0 Hour) on an Envision (Perkin Elmer) plate reader using the following wavelengths Ex 460nm /Em 535nm. Then, the assay plates were incubated for 2.5 hours and read again on the Envision using the same settings Data were normalized to the to AC100 inhibition (NEM). Concentration-response curves were fitted to the normalized data and the concentration-response curves were then classified based on curve quality (r2), response magnitude and degree of measured activity. The time zero reading was used to flag fluorescence artifacts. Keywords: ubiquitination, deubiquitination, proteases, profluorescent, MLSMR, MLSCN, NIH Roadmap, qHTS, NCGC

Potency, active:
COc1ccc(C(=O)/C=C/c2cn(CC(O)CN(CC(C)C)CC(C)C)c3ccccc23)cc1OC (stereo unspecified) 12.6 µM
Cc1ccc([C@H]2Nc3ccc(S(=O)(=O)Nc4cccc(Cl)c4C)cc3[C@H]3C=CC[C@H]32)cc1 7.94 µM
Cc1ccc(S(=O)(=O)Cc2nc(-c3ccc(C(=O)NCc4ccccc4F)cc3)oc2C)cc1 14.1 µM
CCS(=O)(=O)c1nc(S(=O)(=O)c2ccc(C)cc2)c(NCC(C)C)s1 2.82 µM
CCCCCC(=O)N1c2ccccc2C(C)(c2ccccc2)CC1(C)C (stereo unspecified) 12.6 µM

Potency, inconclusive:
Cc1nn(C(=O)c2cccc([N+](=O)[O-])c2C)c(C)c1S(=O)(=O)N1CCCCCC1 12.6 µM [inhibitor, full curve, poor fit]
CC(=O)Nc1ccc(NC(=O)Cn2nc(C(=O)Nc3ccc(C)cc3)ccc2=O)cc1 14.1 µM [inhibitor, partial curve, poor fit]
O=C(CSc1nc2ccsc2c(=O)n1-c1ccc(Br)cc1)NCc1ccccc1 14.1 µM [inhibitor, full curve, poor fit]
CCOc1ccc(C2=C(C(C)=O)Sc3nnc(C)n3N2C(C)=O)cc1 6.31 µM [inhibitor, full curve, poor fit]
COc1ccc(S(=O)(=O)N2CCN(c3ccccc3F)CC2)cc1-c1noc(C)n1 10 µM [inhibitor, full curve, poor fit]
CCCCn1c(SCC(=O)NCCCOC)nc2c(sc3ccccc32)c1=O 14.1 µM [inhibitor, partial curve, poor fit]
CS(=O)(=O)c1ncc(Cl)c(C(=O)N2CCN(c3cccc(Cl)c3)CC2)n1 10 µM [inhibitor, full curve, poor fit]
COc1ccc(/C=C(\C#N)c2nc(-c3cc4c(ccc5ccccc54)oc3=O)cs2)cc1O 17.8 µM [inhibitor, partial curve, poor fit]
CCC(=O)C1=C(c2ccc(OC)c(OC)c2)N(C(=O)CC)n2c(CC)nnc2S1 10 µM [inhibitor, full curve, poor fit]
COc1cc(C2C(C(=O)Nc3ccccc3C)=C(C)Nc3nc(SCc4cc(C)ccc4C)nn32)ccc1O (stereo unspecified) 15.8 µM [inhibitor, partial curve, poor fit]
COc1ccc2c(c1)c1c(c(=O)n(-c3ccc(OC)c(OC)c3)c(=O)n1Cc1ccccc1C)n2C 8.91 µM [inhibitor, full curve, poor fit]
CC1=C(C(=O)Nc2ccccc2C)C(c2ccc[nH]2)n2ncnc2N1 (stereo unspecified) 25.1 µM [inhibitor, partial curve, poor fit]
O=C(CSc1nc(=O)n(Cc2ccccn2)c2c1CCC2)Nc1ccccc1 11.2 µM [inhibitor, full curve, poor fit]
Cc1ccc2scc(N3CCN(c4cccc(C(F)(F)F)c4)CC3)c(=O)c2c1 10 µM [inhibitor, partial curve, poor fit]

activity, negative = inhibition, inactive:
Cc1cc(C)c2nc(N(Cc3cccnc3)C(=O)CCS(=O)(=O)c3ccccc3)sc2c1 3.88%
O=C(CCS(=O)(=O)c1ccccc1)N(Cc1cccnc1)c1nc2c(Cl)cccc2s1 -20.5%
CCC(C)NC(=O)CSc1nc2cc3c(cc2c(=O)n1Cc1ccc(C(=O)NCCc2ccc(OC)c(OC)c2)cc1)OCO3 (stereo unspecified) 24.3%
CCc1ccc(C(=O)c2c(N)c(-c3nc(-c4ccc5c(c4)OCO5)cs3)c3ccccn23)cc1 -99.9%
COC(=O)c1c(NC(=O)CS(=O)(=O)c2ccc(C)cc2)sc2c1CCCCC2 -4.33%
COc1ccc(Cl)cc1NC(=O)CSc1nc(=O)[nH]c2c1CCC2 -51.2%
Oc1c(C(Nc2ccccn2)c2ccccc2F)ccc2cccnc12 (stereo unspecified) 48.7%

Part of the list above in order of formula weight, low to high.
activity, negative = inhibition, inactive:
Oc1c(C(Nc2ccccn2)c2ccccc2F)ccc2cccnc12 (stereo unspecified) 48.7%
CCc1ccc(C(=O)c2c(N)c(-c3nc(-c4ccc5c(c4)OCO5)cs3)c3ccccn23)cc1 -99.9%
O=C(CCS(=O)(=O)c1ccccc1)N(Cc1cccnc1)c1nc2c(Cl)cccc2s1 -20.5%
